Assay results reported in PubChem BioAssay AID1347423 (Functional Genomics Laboratory (NCATS/FGL), 2020).
Screen size: about 52,000 sequences; about 210 (0.4%) were called active.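 Rule for the calls: active = gene whose silencing raises cell survival under the drug, median off-target-corrected z-score across its silencing RNAs 2 or more; inactive = the rest.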 This is one part of the list.

Experiment: Resistance to Poly (ADP-Ribose) Polymerase inhibitor: Gene Identification via Genome-wide siRNA Screen
Details: mouse BRCA2 R2336H ES cells, olaparib, CellTiter-Glo viability; stronger effect = higher value
Outline: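 Mouse BRCA2 R2336H ES cells were reverse-transfected with siRNA (20 nM final), treated at 48 h with 500 nM olaparib, and read by CellTiter-Glo after 72 h. Scores: MAD-based z per siRNA, median per gene, seed off-target correction.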

Question: Which z-score does the source give for GGACCAGAAACGCAUGCUUTT against BC049812 here?
Answer: The z-score was inactive: 0.257.

Question: For CCUGCUCAGAUCCACAGAATT against Dub2, which z-score is on record?
Answer: Its z-score is inactive: -1.14.

Question: For “GGCUACCAGAAAGAUGUGUTT against D030010E02Rik”, which z-score is on record?
Answer: Its z-score is inactive: -1.48.

Question: With “GGAGUUUCGCAUGAGCCUGTT against 1300007L22Rik” as the sequence, how does the z-score read?
Answer: Its z-score is inactive: 0.888.

Question: For GGUCCAAAACCAUCAGAAGTT against Plekha5, which z-score is on record?
Answer: The z-score was inactive: 0.831.

Question: Which z-score does the source give for GGCAAAAAAAAAAUGCCCATT against Sox2 here?
Answer: The z-score was inactive: -0.16.

Question: With “CAGAAUUCAGAUAAUCUUGTT against 9230002F21Rik” as the sequence, how does the z-score read?
Answer: The z-score was inactive: 0.209.

Question: With GGUCAAAACACCUUUAGAUTT against Trip4 as the sequence, how does the z-score read?
Answer: Its z-score is inactive: 0.0551.

Question: Which z-score does the source give for CGAGCAUGAAAAUUCGGUUTT against Neurog1 here?
Answer: Its z-score is inactive: 0.206.

Question: For GCACAUUACUCCUUAUUCUTT against Olfr74, which z-score is on record?
Answer: The z-score was inactive: 0.396.

Question: With “GCUAUGUCAUCGAGGUCCUTT against 2310010M20Rik” as the sequence, how does the z-score read?
Answer: Its z-score is inactive: 0.755.

Question: With GGGUAGACUGUCAGAUUUUTT against Tmc5 as the sequence, how does the z-score read?
Answer: The z-score was inactive: -0.124.

Question: With GGAUCUCGGGAAAAAGUUGTT against Spesp1 as the sequence, how does the z-score read?
Answer: The z-score was inactive: -0.197.

Question: Which z-score does the source give for CCAAUGACUUCUGGUUAGATT against Tdpoz1 here?
Answer: The z-score was inactive: -0.311.

Question: Which z-score does the source give for “GCACUGAACUUUCCUGACCTT against 2700038C09Rik” here?
Answer: Its z-score is inactive: 0.661.

Question: Which z-score does the source give for “GGACUUUGGACUUUCUAUUTT against 2810013M15Rik” here?
Answer: Its z-score is inactive: -1.1.

Question: With “GGGCUCUUUCUACCAAUGUTT against A630077B13Rik” as the sequence, how does the z-score read?
Answer: The z-score was inactive: 0.843.

Question: With GGAGCAUCCACACUUUGUUTT against Hif3a as the sequence, how does the z-score read?
Answer: Its z-score is inactive: -2.57.

Question: For “GGAAAGCUCUUUGUGUCGGTT against 9130427A09Rik”, which z-score is on record?
Answer: The z-score was inactive: -0.287.

Question: For GGAACUUGGUAUUUAGAUCTT against Rhot2, which z-score is on record?
Answer: Its z-score is inactive: 1.66.

Question: For CCGUGGAUAACAUGAGCAUTT against Agpat2, which z-score is on record?
Answer: The z-score was inactive: 2.

Question: Which z-score does the source give for “GGAAGUCAGGUAGUAAAACTT against 2810429K17Rik” here?
Answer: Its z-score is inactive: -0.849.

Question: Which z-score does the source give for GCACCACAAUGAAACGUGCTT against Cacng1 here?
Answer: Its z-score is inactive: -0.26.

Question: For GGACCUACCAGAAUCUGGUTT against Phip, which z-score is on record?
Answer: The z-score was inactive: 2.04.

Question: Which z-score does the source give for CGGUAUCUUGGUCAACCUGTT against Asahl here?
Answer: The z-score was inactive: -0.0295.

Question: Which z-score does the source give for CCUGGAUGGAUUUAAGGCATT against Abcd4 here?
Answer: Its z-score is inactive: 0.639.

Question: Which z-score does the source give for “GGAGUCAUGGAUGAAUGUATT against 3110057O12Rik” here?
Answer: The z-score was inactive: -2.76.

Question: Which z-score does the source give for GGAUGAAGAUGGAGACAUGTT against Lmx1b here?
Answer: Its z-score is inactive: 0.668.
